From patent US20230242616A1, “CHEMOKINE-SELECTIVE CXCR4 ECTODOMAIN-DERIVED (POLY)PEPTIDE” (Ludwig-Maximilians-Universität München, priority 2020, published 2023)
These are yes or no findings as the source states them, for the method shown. Some binding calls cover weakened binding; strength is not graded here.

Sequences of proteins named here, by UniProt entry; tags and fusion partners are left off. Residues count along the entry.
UniProt P48061, residues 22-89: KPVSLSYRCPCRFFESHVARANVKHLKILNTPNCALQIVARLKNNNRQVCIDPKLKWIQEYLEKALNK

How the values were obtained:
[1] = molecular target: T1, human macrophage migration-inhibitory factor (MIF) (human) (UniProt P14174); test: fluorescence spectroscopic titrations
T1 sequence (Alexa-Fluor 488 or Monolith NT-647 (MST-Red) label where so named, looked up): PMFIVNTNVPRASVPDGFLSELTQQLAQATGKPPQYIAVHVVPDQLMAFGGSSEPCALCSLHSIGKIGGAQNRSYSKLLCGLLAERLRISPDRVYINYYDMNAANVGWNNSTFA

[2] = molecular target: T1, human macrophage migration-inhibitory factor (MIF) (human); test: fluorescence spectroscopic binding assay
[3] = molecular target: T1, human macrophage migration-inhibitory factor (MIF) (human); test: fluorescence spectroscopic titration of Alexa-MIF with increasing ngm-LD3 [panel D (spectra: D00078 Figure 30 C]
[4] = molecular target: T1, human macrophage migration-inhibitory factor (MIF) (human); test: fluorescence spectroscopic titration of Fluos-ngm-LD3 with increasing MIF [panel B (spectra: D00078 Figure 30 A]
CXCL12 (human) = CXCL12 (human) (UniProt P48061); test: binding test for CXCL12; no number given

Measured: binding

B1: msR4M-LD3 ([ECL1(102-110)]-D-D-D-[ECL2(187-195)]) (designed binder)
peptide: WYFGNFLCKDDDDRFYPNDLW
modifications: C-terminal amide; N-terminus free, or Fluos where so labelled
not listed: CXCL12 (human)
binds: all other assays above

B2: msR4M-LK3 ([ECL1(102-110)]-K-K-K-[ECL2(187-195)]) (designed binder)
peptide: WYFGNFLCKKKKDRFYPNDLW
modifications: C-terminal amide; N-terminus free, or Fluos where so labelled
binds: [1] | [2] | CXCL12 (human)

B3: msR4M-LR3 ([ECL1(102-110)]-R-R-R-[ECL2(187-195)]) (designed binder)
peptide: WYFGNFLCKRRRDRFYPNDLW
modifications: C-terminal amide; N-terminus free, or Fluos where so labelled
binds: [1] | [2] | CXCL12 (human)
